PubChem BioAssay AID743454 | Peter MacCallum Cancer Centre – 2014
Shown is an unselected part of about 18,000 reagents tested. 450 of all reagents (2.5%) count as active. 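Single biological run; no consistent viability z cut-off exists, so the class columns, not z-scores, define the calls.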 Unmarked entries are inactive.

Assay: 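Search for knock-downs that restore vorinostat killing in resistant colon cancer cells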 (primary screen)
Cells: human HCT116-VR colon cancer cells, selected for vorinostat resistance
Knock-down reagent: siRNA pool against human genes, 40 nM siRNA pool
Timing: vorinostat for 24 h, read-out about 72 h after transfection
Challenge: vorinostat at 2.5 µM final
Measurement: 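Cell viability by CellTiter-Fluor and caspase 3/7 activity by luminescence, each scaled to mock wells per plate, duplicates averaged, then robust z-scored over all plates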
Scale: viability robust z-score: higher = more viable cells than screen typical; caspase robust z-score: higher = more caspase 3/7 activity than screen typical
Call rule: 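a knock-down is a hit when classed RV1 or RV2 for lowered viability, or CA1 or CA2 for caspase activation; those lethal without drug were dropped; hits were retested singly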

| Gene | viability hit class | caspase hit class | viability robust z-score | caspase robust z-score |
| --- | --- | --- | --- | --- |
| RPL35 | no change | no change | -5.78 | -0.8 |
| VAMP8 | no change | no change | -0.18 | -1.12 |
| ACE2 | no change | no change | -0.01 | -0.94 |
| UBE2B | no change | no change | 0.22 | -0.65 |
| API5 | no change | no change | 0.59 | -0.66 |
| RPS4X | no change | no change | -6.57 | -1.68 |
| ZNF638 | no change | no change | -0.78 | -0.47 |
| NUDT5 | no change | no change | 1.7 | 1.43 |
| PCDHGB6 | no change | no change | 0.02 | -0.27 |
| AGPAT1 | no change | no change | 0.6 | -0.14 |
| GRXCR1 | no change | no change | 0.75 | -1 |
| ZNF646 | no change (active) | CA2 (caspase activation) | 0.17 | 5.83 |
| ACP5 | no change | no change | -0.54 | 1.41 |
| TPRKB | no change | no change | -1.33 | -1.01 |
| PAQR7 | no change | no change | -0.64 | 0.26 |
| RBPJL | no change | no change | -0.33 | 1.54 |
| RNF208 | no change | no change | 0.48 | -0.04 |
| TBC1D22B | no change | no change | 1.37 | -0.32 |
| LINC00336 | no change | no change | -0.74 | -0.22 |
| MSANTD2 | no change | no change | 0.2 | -0.04 |
| PIPOX | RV2 (reduced viability) (active) | no change | -3.53 | 3.97 |
| ZSCAN10 | no change | no change | 0.93 | -0.6 |
| FAM178B | no change | no change | -0.16 | 0.97 |
| NAA25 | no change | no change | -1.67 | -0.6 |
| ARHGEF35 | no change | no change | -0.44 | 0.98 |
| CALB2 | no change | no change | 0.47 | 1.12 |
| VPS13D | no change | no change | 0.81 | 0.42 |
| LUZP1 | no change | no change | -0.44 | 0.22 |
| GRIP2 | no change | no change | -4.63 | 1.33 |
| ZNF180 | no change | no change | -0.08 | 0.08 |
| LIN7C | no change | no change | 0.38 | -0.89 |
| TRAPPC13 | no change | no change | -0.18 | -0.18 |
| ZMYND19 | no change | no change | 1.98 | -0.52 |
| DSPP | no change | no change | -2.46 | 2.27 |
| PXT1 | no change | no change | -0.11 | -0.12 |
| PCARE | no change | no change | -0.66 | 2.52 |
| OVCH1 | no change | no change | 0.22 | -0.96 |
| NSG2 | no change | no change | 0.26 | -0.02 |
| OPN3 | no change | no change | 0.52 | -0.93 |

In a second layout: entries from further up.
AGPAT1 → viability hit class = no change; caspase hit class = no change; viability robust z-score = 0.6; caspase robust z-score = -0.14
GRXCR1 → viability hit class = no change; caspase hit class = no change; viability robust z-score = 0.75; caspase robust z-score = -1
ZNF646 → viability hit class = no change (active); caspase hit class = CA2 (caspase activation); viability robust z-score = 0.17; caspase robust z-score = 5.83
ACP5 → viability hit class = no change; caspase hit class = no change; viability robust z-score = -0.54; caspase robust z-score = 1.41
